Consider 39 compounds from the supplement of paper PMC10689618.

This is one part of the list. Repeats are few or missing, and single values can be far off.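 Labelled rat cortical synaptosomes were engulfed by primary human fetal astrocytes. Engulfment equaled a red/green ratio, corrected for calcein live-cell signal and normalized to the plate median. Compounds were toxic when calcein dropped over 30%, and reduced phagocytosis when below 70% of the median above 5 µM.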

This experiment has as its system Human fetal astrocytes. The experiment can be described thus: loss of total cells relative to no-compound high-control median (toxicity); higher = more toxic (fewer cells). The settings on record: 5.56 µM; 24 h.
`C[C@@H]1CC[C@@]2(OC1)O[C@H]1C[C@H]3[C@@H]4CC[C@H]5C[C@@H](O)CC[C@]5(C)[C@H]4CC[C@]3(C)[C@H]1[C@@H]2C`: the “loss of total cells” value was -12.2%.
For the compound `c1coc(CNc2ncnc3[nH]cnc23)c1`, the “loss of total cells” value came to 27.5%.
On to `OC(c1cc(C(F)(F)F)nc2c(C(F)(F)F)cccc12)C1CCCCN1` (centres undefined), for which the “loss of total cells” value is 13%.
Take `Oc1c(Cl)cc(Cl)c(Cl)c1Cc1c(O)c(Cl)cc(Cl)c1Cl`: the “loss of total cells” value is -2.1%.
With `O=C(O)CCCC[C@@H]1SC[C@@H]2NC(=O)N[C@@H]21` the figure was -7.5%; with `O=c1cc(-c2ccc(O)c(O)c2)oc2cc(O)cc(O)c12`, 12.5%; with `CCC(CCC(C)C1CCC2C3CCC4CC(O)CCC4(C)C3CCC12C)C(C)C` (centres undefined), -0.7%.
For `Nc1nc(=S)c2ncn([C@@H]3O[C@H](CO)[C@@H](O)[C@H]3O)c2[nH]1`, the “loss of total cells” value is -8%.
As to `C=CC(C1=CC(=O)C(OC)=CC1=O)c1ccc(O)cc1` (centres undefined), the “loss of total cells” value was -8.4%.
As for `O=C1C(CC[S+]([O-])c2ccccc2)C(=O)N(c2ccccc2)N1c1ccccc1` (centres undefined), the “loss of total cells” value came out at 6.3%.
Take `CN1CCCN=C1/C=C/c1cccc(O)c1`: the “loss of total cells” value is 27.5%.
As for `O=C(O)c1ccc(S(=O)(=O)N(Cl)Cl)cc1`, the “loss of total cells” value is -11.1%.
Next, `COc1ccc(-c2cc(=O)c3c(OC)c(OC)c(OC)c(OC)c3o2)cc1`: 12.5%; `COc1ccc2oc(-c3ccccc3)c(OC)c(=O)c2c1`: -18.3%; `CN1CCc2c(c3ccccc3n2Cc2ccccc2)C1`: 2.9%.
For the compound `CC[C@@]1(O)C(=O)OCc2c1cc1n(c2=O)Cc2cc3c(CN(C)C)c(O)ccc3nc2-1`, the “loss of total cells” value was -2.1%.
Consider `N=C(N)NCCN1CCCCCCC1`, for which the “loss of total cells” value was -27.9%.
For `N[C@@H](COCc1ccccc1)C(=O)O`, the “loss of total cells” value was -1.5%.
With `CCOC(=O)[C@H](CCc1ccccc1)N[C@@H](C)C(=O)N1CCC[C@H]1C(=O)O` the figure was -2.7%.
With `COC(=O)C[C@H]1C(C)(C)[C@@H](O)[C@@H]2CC3=C4C=C(OC)O[C@@H](c5ccoc5)[C@]4(C)CCC3[C@@]1(C)C2=O` (stereo partly drawn) [3-DEOXO-3beta-HYDROXYMEXICANOLIDE 16-ENOL ETHER], the “loss of total cells” value was determined as 26.7%.
`CN1CCN(C(c2ccccc2)c2ccccc2)CC1`: the “loss of total cells” value amounted to 3.5%.
Regarding `N[C@@H](CCC(=O)N[C@@H](CSC(CC(=O)O)C(=O)O)C(=O)NCC(=O)O)C(=O)O` (some centres undefined), the “loss of total cells” value was 2.9%.
For `Cc1ccc(S(=O)(=O)NC(=O)NN2CC3CCCC3C2)cc1` (centres undefined), the “loss of total cells” value is 23.2%.
In the case of `CC[C@H]1OC(=O)C[C@@H](O)[C@H](C)[C@@H](O[C@@H]2O[C@H](C)[C@@H](O)[C@H](N(C)C)[C@H]2O)[C@@H](CCN2C[C@H](C)C[C@H](C)C2)C[C@@H](C)C(=O)/C=C/C(C)=C/[C@@H]1CO[C@@H]1O[C@H](C)[C@@H](O)[C@@H](OC)[C@H]1OC`, the “loss of total cells” value was -1.9%.
Turning to `Nc1ccccc1S(N)(=O)=O`, the “loss of total cells” value was -1.4%.
Take `O=c1c(O)cc([C@H]2Oc3cc(O)cc(O)c3C[C@H]2O)cc2c([C@H]3Oc4cc(O)cc(O)c4C[C@H]3O)cc(O)c(O)c12`: the “loss of total cells” value came out at 32.8%.
`Cc1nc(C)c(Cl)c(O)c1Cl`: the “loss of total cells” value turned out to be 2.5%.
With `CC(=O)O[C@H]1CC[C@]2(C)[C@H]3CC=C4[C@@H]5CC(C)(C)CC[C@]5(C)CC[C@@]4(C)[C@]3(C)CC[C@H]2C1(C)C` [beta-AMYRIN ACETATE] the figure was -19.8%; with `C#C[C@]1(OC(C)=O)CC[C@H]2[C@@H]3CCC4=C[C@@H](OC(C)=O)CC[C@@H]4[C@H]3CC[C@@]21C`, 7.6%; with `CC(CCC(=O)O)[C@H]1CCC2C3CC[C@@H]4CC(=O)CC[C@]4(C)C3C=C[C@@]21C` (some centres undefined), -10.3%.
Consider `CCOC(=O)[N-]c1c[n+](N2CCOCC2)no1` [Molsidomine], for which the “loss of total cells” value was -6.3%.
Consider `CN(C(=O)CN(CCO)CC(=O)N(C)C(C)(C)Cc1ccccc1)C(C)(C)Cc1ccccc1`, for which the “loss of total cells” value is -8.7%.
For `COc1ccc(CN(CCN(C)C)c2ncccn2)cc1`, the “loss of total cells” value was -6.8%.
As for `C[N+](C)(C)CCOP(=O)(O)OP(=O)([O-])OC[C@H]1O[C@@H](n2ccc(N)nc2=O)[C@H](O)[C@@H]1O`, the “loss of total cells” value is -1.9%.
Regarding `OC[C@H]1O[C@@](CO)(O[C@H]2O[C@H](CO)[C@@H](O)[C@H](O)[C@H]2O)[C@@H](O[C@H]2O[C@H](CO)[C@@H](O)[C@H](O)[C@H]2O)[C@@H]1O`, the “loss of total cells” value was determined as 2.9%.
Next, `CC(C)/C(O)=C1/C(=O)O[C@@H](c2ccoc2)[C@]2(C)C(O)[C@@H](O)[C@@]34OC5(C)OC67CC(C)(C(O)[C@]6(O)[C@@H](O)[C@]3(O5)C12)[C@H](CC(=O)O)[C@]74C` (some centres undefined): 44.3%; `CCN1CCCC(OC(=O)C(c2ccccc2)c2ccccc2)C1` (centres undefined): 9.9%.
In the case of `Cc1cc(C)nc(NS(=O)(=O)c2ccc(N)cc2)n1`, the “loss of total cells” value was -3.5%.
Turning to `C=C1C(=O)[C@]23[C@H](CC[C@@H]1[C@@H]2O)[C@]12CO[C@@]3(O)[C@H](O)[C@H]1C(C)(C)CC[C@@H]2O`, the “loss of total cells” value was 19.8%.
